From patent US20070117861A1, “Treatment or prevention of cardiovascular and respiratory disorders with novel substituted cyclic-amp specific phosphodiesterase inhibitors” (University of South Carolina, priority 2003, published 2007)
For at least one compound, name, drawing or mass did not settle the structure.

The chains behind the UniProt entries cited, without tags or fusion partners.
UniProt O35505, whole entry: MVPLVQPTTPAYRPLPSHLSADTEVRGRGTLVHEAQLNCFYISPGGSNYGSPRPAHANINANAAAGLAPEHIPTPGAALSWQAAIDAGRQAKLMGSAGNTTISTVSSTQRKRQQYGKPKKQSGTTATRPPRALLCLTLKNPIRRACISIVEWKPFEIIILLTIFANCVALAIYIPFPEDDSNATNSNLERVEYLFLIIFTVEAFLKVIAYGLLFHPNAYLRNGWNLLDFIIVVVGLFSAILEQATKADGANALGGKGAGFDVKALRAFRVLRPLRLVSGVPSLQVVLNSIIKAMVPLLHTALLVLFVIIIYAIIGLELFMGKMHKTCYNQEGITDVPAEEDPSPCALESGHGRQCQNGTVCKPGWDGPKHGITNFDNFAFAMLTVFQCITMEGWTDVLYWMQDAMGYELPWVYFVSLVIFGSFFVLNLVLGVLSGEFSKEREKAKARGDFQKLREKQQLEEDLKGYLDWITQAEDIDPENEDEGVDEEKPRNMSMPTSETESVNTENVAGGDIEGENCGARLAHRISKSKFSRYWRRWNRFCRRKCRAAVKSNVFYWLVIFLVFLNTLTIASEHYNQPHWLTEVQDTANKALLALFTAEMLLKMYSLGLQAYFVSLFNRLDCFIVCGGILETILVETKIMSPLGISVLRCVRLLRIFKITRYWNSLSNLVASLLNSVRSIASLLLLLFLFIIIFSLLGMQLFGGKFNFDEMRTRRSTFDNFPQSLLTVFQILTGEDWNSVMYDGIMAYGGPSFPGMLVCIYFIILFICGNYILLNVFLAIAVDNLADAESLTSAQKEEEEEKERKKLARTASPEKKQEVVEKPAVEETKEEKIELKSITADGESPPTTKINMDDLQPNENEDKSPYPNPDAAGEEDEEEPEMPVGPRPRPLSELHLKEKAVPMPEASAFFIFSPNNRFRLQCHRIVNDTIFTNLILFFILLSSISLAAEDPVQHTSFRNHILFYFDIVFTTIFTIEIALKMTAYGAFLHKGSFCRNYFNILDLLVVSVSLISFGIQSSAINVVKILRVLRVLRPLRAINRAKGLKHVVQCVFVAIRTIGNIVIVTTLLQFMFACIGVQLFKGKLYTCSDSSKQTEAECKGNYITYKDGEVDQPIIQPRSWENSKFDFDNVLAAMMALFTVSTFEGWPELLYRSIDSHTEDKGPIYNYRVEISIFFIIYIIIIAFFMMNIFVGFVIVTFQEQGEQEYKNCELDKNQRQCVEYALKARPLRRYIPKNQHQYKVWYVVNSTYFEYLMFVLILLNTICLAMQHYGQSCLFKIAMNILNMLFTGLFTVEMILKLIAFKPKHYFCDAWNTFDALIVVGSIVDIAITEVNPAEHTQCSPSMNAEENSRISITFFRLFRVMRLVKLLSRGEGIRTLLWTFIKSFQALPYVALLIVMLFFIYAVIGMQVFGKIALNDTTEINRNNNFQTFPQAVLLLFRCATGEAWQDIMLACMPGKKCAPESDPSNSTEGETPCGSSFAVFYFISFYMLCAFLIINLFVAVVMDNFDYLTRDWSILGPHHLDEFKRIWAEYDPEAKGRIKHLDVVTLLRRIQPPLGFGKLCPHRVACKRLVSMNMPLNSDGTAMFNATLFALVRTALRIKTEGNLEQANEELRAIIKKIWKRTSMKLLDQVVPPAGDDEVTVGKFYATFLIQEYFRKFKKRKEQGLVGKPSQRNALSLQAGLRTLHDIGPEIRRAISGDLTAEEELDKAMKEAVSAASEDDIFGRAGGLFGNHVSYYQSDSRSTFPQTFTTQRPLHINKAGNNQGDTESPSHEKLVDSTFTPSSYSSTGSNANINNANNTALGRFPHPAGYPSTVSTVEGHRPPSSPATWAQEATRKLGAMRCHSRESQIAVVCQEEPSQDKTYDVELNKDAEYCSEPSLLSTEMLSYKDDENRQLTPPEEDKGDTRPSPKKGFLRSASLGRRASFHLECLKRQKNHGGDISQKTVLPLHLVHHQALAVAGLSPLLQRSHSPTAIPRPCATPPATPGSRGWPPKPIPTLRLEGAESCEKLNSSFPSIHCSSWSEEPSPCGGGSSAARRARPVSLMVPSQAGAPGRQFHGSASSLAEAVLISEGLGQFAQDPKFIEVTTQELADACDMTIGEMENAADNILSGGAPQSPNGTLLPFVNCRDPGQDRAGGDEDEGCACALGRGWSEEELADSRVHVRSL

Columns and labels:
[1] = tested on: PDE-4; assay: in vitro PDE-4 inhibition; type: biochemical
[2] = tested on: PDE-3; assay: in vitro PDE-3 inhibition; type: biochemical
[3] = tested on: cAMP-specific phosphodiesterases (PDEs); assay: Phosphodiesterase (PDE) assay, 3H-cAMP, tissue protein extract; type: biochemical, guinea pig; conditions: protein extract from brain tissue and airway smooth muscles
[4] = onset of therapeutic effect after administration; type: in vivo; conditions: after intravenous administration
[5] = tested on: high K+-contracted (70 mM) aorta rings; assay: tension assay, high K+-contracted aorta rings; set-up: species or system Sprague-Dawley rats; conditions: rat aorta rings, 70 mM K+
[6] = tested on: high K+-contracted (70 mM) aorta rings; assay: tension assay, high K+-contracted aorta rings; set-up: species or system Harley Guinea Pigs; conditions: guinea pig aorta rings, 70 mM K+
[7] = molecular target: high K+ contracted porcine kidney main artery; assay: tension assay, high K+ contracted porcine kidney vessel rings
Experimental: The trachea, main bronchi and vessel rings (2-3 mm in width) of Sprague-Dawley rats, Harley Guinea Pigs and porchine were used to carry out the tension assay. The tissue rings were bathed in 3.5 ml or 30 ml tissue chamber and aired with 95% O2/5% CO2 at 37° C. The tension was measured using a tension transducer linked to a PowerLab system (ADInstruments, USA). The basal tension was set to 0.7-1.0 g step by step with a 0.1-0.2 g increment. After the base tension reached steady-state in control K-H solution, the rings were contracted for 5-10 minutes by a 70 mM high K^+ K-H solution and relaxed by switching back to normal K-H solution. The alternation between 70 mM K^+ K-H and normal K-H was repeated two more times to equilibrate the tissue before the experiment.

[8] = non-invasive tail-cuff blood pressure in awake SHR rats; type: in vivo
[9] = molecular target: T1, L-type calcium channels (Cavia porcellus, UniProt O35505); assay: voltage-clamp L-type calcium current in ventricular myocyte; type: cell-based, guinea pig; conditions: step pulse from -40 mV to 0 mV, 300 msec
T1 construct: Single myocytes were isolated by enzymatic digestion of guinea pig hearts; endogenous in cells; host or cells: freshly isolated guinea pig ventricular myocytes

[10] = blood pressure in anesthetized rats after intravenous bolus injection; type: in vivo; conditions: Sprague-Dawley rats, administered intravenously
[11] = coronary flow rate

CCCN(CC)C(C)C(=O)Nc1[nH]c(CCSC)c(C)c1C(N)=O (stereo not shown) [MS23]
IC50 [1]: ~2 µM
IC50 [2]: ~60 µM
inhibition of total activity of cAMP-specific phosphodiesterases [3]: concentration-dependently inhibited
onset of therapeutic effect (response occurs) [4]: immediate
relaxation of high K+-contracted aorta rings [5]: fully relaxed
relaxation of high K+-contracted aorta rings [6]: fully relaxed
Kd ([7]; high K+ contracted rings, similar in arterial and venous vessels, FIG. 4 porcine kidney artery rings, read-out: Kd value of vessel relaxation): ~15 µM
effect on tension of high K+ contracted porcine kidney main artery ([7]; tension assay trace, FIG. 5): concentration-dependent and reversible upon washout and repeatable
blood pressure, non-invasive tail-cuff method ([8]; intraperitoneal injection 1 mg/kg.bw): significantly lowered
blood pressure, non-invasive tail-cuff method ([8]; oral gavage 20 mg/kg.bw): significantly lowered
amplitude of L-type calcium current [9]: concentration-dependently reduced
blood pressure [10]: reduces the blood pressure
coronary flow rate [11]: increases coronary flow rate
